## Results of single-concentration screens

Protein sequences, listed by entry. Tags and fused reporters are not part of them. Residues count along the entry.
UniProt A4I591, 1-473: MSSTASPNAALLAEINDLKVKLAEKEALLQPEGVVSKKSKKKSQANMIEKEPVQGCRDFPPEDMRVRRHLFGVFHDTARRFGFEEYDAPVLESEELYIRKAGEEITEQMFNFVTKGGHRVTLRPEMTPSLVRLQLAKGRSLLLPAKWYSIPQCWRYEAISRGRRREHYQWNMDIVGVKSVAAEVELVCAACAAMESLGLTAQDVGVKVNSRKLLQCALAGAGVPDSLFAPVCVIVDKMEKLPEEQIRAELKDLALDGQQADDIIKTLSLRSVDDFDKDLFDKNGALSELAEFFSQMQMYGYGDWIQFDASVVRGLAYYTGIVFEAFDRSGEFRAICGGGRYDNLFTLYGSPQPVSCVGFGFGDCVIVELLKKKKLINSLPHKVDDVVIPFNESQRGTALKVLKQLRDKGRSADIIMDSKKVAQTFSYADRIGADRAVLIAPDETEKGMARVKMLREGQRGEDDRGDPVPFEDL

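Histidine-tRNA ligase, Leishmania infantum (UniProt A4I591). Enzyme assay of histidyl-tRNA synthetase; the read-out is not stated. Tested at 30 µM. Higher reads as stronger inhibition (inferred: compounds with an IC50 in retests scored well above the rest). The assay is labelled LdHisRS but filed under L. infantum. About 69,000 compounds were tested under these conditions; 0.6% (about 410) showed 50% or more at least once.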

Values are the deposited “Percent Effect”, in %.
How 0% and 100% were set is not recorded. Most values in the screen are low, and negative values occur.
Compounds were drawn at random from those tested, without regard to their results.

compound,effect
N#Cc1ccc(OCC(O)CN2CCC(c3ccn[nH]3)CC2)cc1 (stereo unspecified),15.25%
COc1ccc(Cc2ncc3c(n2)CN(C(=O)CCO)C3)cc1,-2.151%
CN(C)C1CC2(CCN(C(=O)c3csnn3)CC2)c2ccccc21 (stereo unspecified),12.28%
N#CCCN(CC1CC1)S(=O)(=O)c1cccc(Cl)c1,6.667%
CC(=O)N1CCC(NC[C@H]2Cn3c(-c4ccccc4)cnc3CO2)CC1,-6.757%
CCOc1nnc(CN(C)CC2CCCN2c2cccnn2)s1 (stereo unspecified),22.86%
Cc1nc(N2CCCC2)nc2c1CCN(Cc1ccsc1)CC2,3.947%
O=C1CC(c2ccccc2Br)c2sc(N3CCOCC3)nc2N1 (stereo unspecified),87.5%
Cc1nc(C)n(CC2CCCCN2CCCS(=O)(=O)N(C)C)n1 (stereo unspecified),11.54%
CC(C)C1CCCN1CCCc1nc(-c2cccs2)no1 (stereo unspecified),13.16%
CCCS(=O)(=O)N1CCc2c(COCC)cncc2C1,5.983%
Cc1c(C2CCCN(C(=O)C3CC3)C2)n2c(nc1=O)CCC2 (stereo unspecified),22.22%
Cc1ccc(CNc2cc3c(cc2Cl)NC(=O)CO3)cc1C,11.67%
N#Cc1ccc(CN2C(=O)c3ccccc3CS2(=O)=O)c(F)c1,5.357%
CN(C)C(=O)CN1CCC(c2nnc(Cn3cccn3)n2C2CC2)CC1,8.642%
CCN(CC1CCOC1)C(=O)CSCC(=O)Nc1ccc(C)cc1 (stereo unspecified),4.478%
O=C(c1ccc(N2CCCC2)nc1)N1CCCC(n2cncn2)C1 (stereo unspecified),6.481%
CC(C)C(NC(=O)NCCNc1ccccn1)c1cccs1 (stereo unspecified),21.92%
COc1ccc(-c2nc(C#N)c(N(C)C)o2)cc1S(=O)(=O)N(C)C,2.083%
N#Cc1cccnc1N1CCCC(CO)(Cc2cccc(Cl)c2)C1 (stereo unspecified),3.03%
O=C1CCC2(CCCN(C(=O)NCc3ccccc3)CC2)N1 (stereo unspecified),13.46%
Cc1ncsc1C(=O)N(C)Cc1cccc(Cl)c1,42.4%
Cc1nn(C)c(C)c1CN(C)C1CCN(c2ncnc3[nH]cnc23)CC1,30.77%
Cc1cc(NC(=O)N2CCC[C@@H]2CO)nn1-c1cccc(Cl)c1,13.95%
N#Cc1cc(C#N)c(SCCC(=O)Nc2ccc(F)cc2)nc1N,-12.12%
CCN1CCN(CCCNc2ncccn2)CC1,15.04%
CCc1nc(CC(=O)N2CCCC2Cn2cccn2)cs1 (stereo unspecified),9.459%
COc1ccccc1C(=O)N1CC2(COC(C)(C)OC2)C1,5.217%
O=C(NCc1cc[nH]n1)N1CCCCC(N2CCCC2)C1 (stereo unspecified),16.67%
Cc1ccccc1Oc1ncccc1CNC(=O)Cn1cccnc1=O,4.444%
c1ccc(CCN2CCCC2c2cncc(Nc3nncs3)n2)cc1 (stereo unspecified),11.27%
CCNc1ccc(-c2ccnc3c2ccn3C)nn1,13.16%
Cc1c(C)n2c(SCC(=O)N3CCOCC3)nnc2[nH]c1=O,19.35%
Cc1cccc(C(=O)N(C)Cc2cc(Br)cs2)n1,8.571%
CCc1nnc2n1CCN(C(=O)c1cc3cc(F)ccc3[nH]1)C2,21.92%
CSc1ccc(C(=O)N2CCOCC2c2c(C)n[nH]c2C)o1 (stereo unspecified),6.481%
CC(NC(=O)c1cc(-c2cccc(Cl)c2)no1)C(=O)N(C)C (stereo unspecified),19.2%
O=C(CC1CCCC1)Nc1ccc(-n2cc(Br)cn2)nc1,10.53%
O=C(c1ccc[nH]1)N1C[C@H](OCc2ccccn2)[C@H]2COC[C@H]21,8.333%
CCc1noc(C(C)N2CCN(Cc3nnc(C4CC4)o3)CC2)n1 (stereo unspecified),4.054%
CCCN(CCc1ccccn1)C(=O)Cn1cc(C)cn1,1.205%
c1cc(CN2CCC3(CC2)COC(COCC2CC2)C3)co1 (stereo unspecified),11.54%
O=C1[C@H]2CN(c3cnccn3)C[C@H]2CN1CC1CC1,16%
COC[C@@]12CCO[C@@H]1CCN(Cc1sccc1C)C2,24%
CC(=O)N1CCCC2(CN(Cc3ccccc3C(F)(F)F)CCO2)C1 (stereo unspecified),25.71%
CCC(O)Cn1cc(C2=CCN(Cc3ccc(OC)cc3)CC2)cn1 (stereo unspecified),0%
Cc1ccc(CN2CCOC3(COCCN(C(C)C)C3)C2)o1 (stereo unspecified),13%
Cc1cnn(CC2CN(Cc3ccc(-n4cccn4)cc3)CCO2)c1 (stereo unspecified),3.39%

Measurements from “University of Dundee, Small-Polar-MMV Screening Library” (2021), ChEMBL document CHEMBL3988442.